The record followed here is paper PMC5520747.

The chains behind the UniProt entries cited, without tags or fusion partners. Where a name states a change or a piece, a line headed by the entry shows the natural chain unless it says otherwise.
UniProt Q03135: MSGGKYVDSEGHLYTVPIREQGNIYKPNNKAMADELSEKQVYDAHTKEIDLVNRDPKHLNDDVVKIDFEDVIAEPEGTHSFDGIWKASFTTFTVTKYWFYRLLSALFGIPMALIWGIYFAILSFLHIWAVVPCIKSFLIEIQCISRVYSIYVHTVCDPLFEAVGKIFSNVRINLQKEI
UniProt Q14457: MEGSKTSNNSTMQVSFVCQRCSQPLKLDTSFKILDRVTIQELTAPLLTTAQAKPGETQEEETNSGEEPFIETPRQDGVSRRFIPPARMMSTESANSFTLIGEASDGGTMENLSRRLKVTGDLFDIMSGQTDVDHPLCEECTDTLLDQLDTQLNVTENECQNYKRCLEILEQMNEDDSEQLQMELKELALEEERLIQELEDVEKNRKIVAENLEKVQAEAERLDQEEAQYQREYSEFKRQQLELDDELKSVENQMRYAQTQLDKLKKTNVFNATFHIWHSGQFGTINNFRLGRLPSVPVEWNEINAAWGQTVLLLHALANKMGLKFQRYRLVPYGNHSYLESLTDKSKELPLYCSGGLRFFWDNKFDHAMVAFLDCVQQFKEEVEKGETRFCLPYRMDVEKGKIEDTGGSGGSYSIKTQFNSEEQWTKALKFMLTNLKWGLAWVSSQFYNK

No constants are given. Whether binding was seen depends on the method and setting. Binding seen in cells or lysates may run through a third protein. Binding calls can cover weak binding; strength is not graded here.

This assay deals with HA-tagged CAV1 (Caveolin1), full length (UniProt Q03135). As to the kind of experiment: co-IP; HEK293T transfected 24 h; IP with anti-HA antibody (CAV1-HA variant as bait), western blot; lysis in modified RIPA (10 mM Tris-HCl, 150 mM NaCl, 5 mM EDTA, 1 mM Na3VO4, 1% CHAPS); cells untreated or treated with 1 mM H2O2 up to 30 min. On the technique in general: In western blotting, separated proteins are transferred to a membrane and probed.

As for BECN1ΔCCD-Flag (from UniProt Q14457), the binding entry is “binds”.
